Structures can show the parent of a compound that is named as a salt. Some of the results follow. Most entries show no effect beyond the scatter of the controls.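 Reh, a human leukemia cell line, is read out by flow cytometry as the median γH2AX antibody signal in S-phase cells; the score counts standard deviations from the median difference of each paired plate set. Scores above 2.5 were candidate hits; scores below -2 mark compounds lowering MK1775-induced damage.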
These molecules were tested on Reh (assay: Z' of S-phase gammaH2AX difference (drug + MK1775 minus drug alone) (Z-score); higher = stronger synergistic S-phase DNA damage with MK1775). Settings: MK1775 concentration 400 nM; first compound 10 µM; 4 h.

Structure (SMILES) | Z' of S-phase gammaH2AX difference (Z-score)
O=C(O)CCCCCCC1C(=O)NC(=O)N1CCC(O)C1CCCCC1 (stereo unspecified) + C=CCn1c(=O)c2cnc(Nc3ccc(N4CCN(C)CC4)cc3)nc2n1-c1cccc(C(C)(C)O)n1 [MK1775] | inactive: -0.0679
O=c1cc(N2CCOCC2)oc2c(-c3ccccc3)cccc12 [LY-294,002 hydrochloride] + C=CCn1c(=O)c2cnc(Nc3ccc(N4CCN(C)CC4)cc3)nc2n1-c1cccc(C(C)(C)O)n1 [MK1775] | inactive: 0.369
O=c1cc(N2CCOCC2)oc2c(-c3ccccc3)cccc12 + C=CCn1c(=O)c2cnc(Nc3ccc(N4CCN(C)CC4)cc3)nc2n1-c1cccc(C(C)(C)O)n1 [MK1775] | inactive: 0.202
CCN1CCCC1CNC(=O)c1cc(S(N)(=O)=O)ccc1OC (single isomer, unassigned; (-)) [(-)-Sulpiride] + C=CCn1c(=O)c2cnc(Nc3ccc(N4CCN(C)CC4)cc3)nc2n1-c1cccc(C(C)(C)O)n1 [MK1775] | inactive: -0.461
CN1CCN2c3ccccc3Cc3ccccc3C2C1 (stereo unspecified) [Mianserin hydrochloride] + C=CCn1c(=O)c2cnc(Nc3ccc(N4CCN(C)CC4)cc3)nc2n1-c1cccc(C(C)(C)O)n1 [MK1775] | inactive: -0.398
N[C@@H](Cc1ccc(O)c(O)c1)C(=O)O [L-3,4-Dihydroxyphenylalanine] + C=CCn1c(=O)c2cnc(Nc3ccc(N4CCN(C)CC4)cc3)nc2n1-c1cccc(C(C)(C)O)n1 [MK1775] | inactive: -0.0802
CN(c1ncccc1CNc1nc(Nc2ccc3c(c2)CC(=O)N3)ncc1C(F)(F)F)S(C)(=O)=O + C=CCn1c(=O)c2cnc(Nc3ccc(N4CCN(C)CC4)cc3)nc2n1-c1cccc(C(C)(C)O)n1 [MK1775] | inactive: -1.04
CCN1C(=O)C=CC1=O [N-Ethylmaleimide] + C=CCn1c(=O)c2cnc(Nc3ccc(N4CCN(C)CC4)cc3)nc2n1-c1cccc(C(C)(C)O)n1 [MK1775] | inactive: 0.843
C[N+](C)(C)CCOC(N)=O [Carbachol] + C=CCn1c(=O)c2cnc(Nc3ccc(N4CCN(C)CC4)cc3)nc2n1-c1cccc(C(C)(C)O)n1 [MK1775] | inactive: -0.167
COc1ccc(-c2oc3cc(OC)ccc3c2C(=O)c2ccc(C#N)cc2)cc1 + C=CCn1c(=O)c2cnc(Nc3ccc(N4CCN(C)CC4)cc3)nc2n1-c1cccc(C(C)(C)O)n1 [MK1775] | inactive: 0.143
CCOC(=O)C1=C(C)NC(C)=C(C(=O)OC)C1c1cccc(Cl)c1Cl (stereo unspecified) [Felodipine] + C=CCn1c(=O)c2cnc(Nc3ccc(N4CCN(C)CC4)cc3)nc2n1-c1cccc(C(C)(C)O)n1 [MK1775] | inactive: 0.702
Cc1nc2sccn2c(=O)c1CCN1CCC(=C(c2ccc(F)cc2)c2ccc(F)cc2)CC1 [Ritanserin] + C=CCn1c(=O)c2cnc(Nc3ccc(N4CCN(C)CC4)cc3)nc2n1-c1cccc(C(C)(C)O)n1 [MK1775] | inactive: -0.323
Cc1oc(S(=O)(=O)N2CCCCC2)cc1NC(=O)Nc1ccccc1 + C=CCn1c(=O)c2cnc(Nc3ccc(N4CCN(C)CC4)cc3)nc2n1-c1cccc(C(C)(C)O)n1 [MK1775] | inactive: 0.397
O=C1c2c(O)ccc(O)c2C(=O)c2c(NCCNCCO)ccc(NCCNCCO)c21 [Mitoxantrone Hydrochloride] + C=CCn1c(=O)c2cnc(Nc3ccc(N4CCN(C)CC4)cc3)nc2n1-c1cccc(C(C)(C)O)n1 [MK1775] | inactive: 2.1
O=C1c2c(O)ccc(O)c2C(=O)c2c(NCCNCCO)ccc(NCCNCCO)c21 [Mitoxantrone] + C=CCn1c(=O)c2cnc(Nc3ccc(N4CCN(C)CC4)cc3)nc2n1-c1cccc(C(C)(C)O)n1 [MK1775] | inactive: -10.6
CN(C(=O)CCCOc1ccc2[nH]c(=O)ccc2c1)C1CCCCC1 [Cilostamide] + C=CCn1c(=O)c2cnc(Nc3ccc(N4CCN(C)CC4)cc3)nc2n1-c1cccc(C(C)(C)O)n1 [MK1775] | inactive: -0.127
CCCCc1oc2ccccc2c1C(=O)c1cc(I)c(OCCN(CC)CC)c(I)c1 [Amiodarone hydrochloride] + C=CCn1c(=O)c2cnc(Nc3ccc(N4CCN(C)CC4)cc3)nc2n1-c1cccc(C(C)(C)O)n1 [MK1775] | inactive: 0.438
CN1CCN(c2ccc3nc(-c4c(N)c5c(F)cccc5[nH]c4=O)[nH]c3c2)CC1 [Dovitinib (TKI-258)] + C=CCn1c(=O)c2cnc(Nc3ccc(N4CCN(C)CC4)cc3)nc2n1-c1cccc(C(C)(C)O)n1 [MK1775] | active: 4.15

Structure (SMILES) | Z' of S-phase gammaH2AX difference (Z-score)
N[C@@H](COP(=O)(O)O)C(=O)O [O-Phospho-L-serine] + C=CCn1c(=O)c2cnc(Nc3ccc(N4CCN(C)CC4)cc3)nc2n1-c1cccc(C(C)(C)O)n1 [MK1775] | inactive: 0.582
CCN1CCCC1CNC(=O)c1cc(S(N)(=O)=O)ccc1OC (stereo unspecified) [(?)-Sulpiride] + C=CCn1c(=O)c2cnc(Nc3ccc(N4CCN(C)CC4)cc3)nc2n1-c1cccc(C(C)(C)O)n1 [MK1775] | inactive: -0.319
O=C(O)c1cc2cc(F)ccc2[nH]1 [5-Fluoroindole-2-carboxylic acid] + C=CCn1c(=O)c2cnc(Nc3ccc(N4CCN(C)CC4)cc3)nc2n1-c1cccc(C(C)(C)O)n1 [MK1775] | inactive: -0.0334
CC12CC3CC(C)(C1)CC(N)(C3)C2 [Memantine hydrochloride] + C=CCn1c(=O)c2cnc(Nc3ccc(N4CCN(C)CC4)cc3)nc2n1-c1cccc(C(C)(C)O)n1 [MK1775] | inactive: 0.15
C#C[C@]1(O)CC[C@H]2[C@@H]3CCC4=Cc5oncc5C[C@]4(C)[C@H]3CC[C@@]21C [Danazol] + C=CCn1c(=O)c2cnc(Nc3ccc(N4CCN(C)CC4)cc3)nc2n1-c1cccc(C(C)(C)O)n1 [MK1775] | inactive: 0.712
Cc1cccc(-c2nn3c(c2-c2ccnc4ccc(C(N)=O)cc24)CCC3)n1 + C=CCn1c(=O)c2cnc(Nc3ccc(N4CCN(C)CC4)cc3)nc2n1-c1cccc(C(C)(C)O)n1 [MK1775] | inactive: 0.23
O=C(Nc1cccnc1)N1CCC(Cc2cccc(Oc3ccc(C(F)(F)F)cn3)c2)CC1 + C=CCn1c(=O)c2cnc(Nc3ccc(N4CCN(C)CC4)cc3)nc2n1-c1cccc(C(C)(C)O)n1 [MK1775] | inactive: -0.123
O=C(Nc1ccc([N+](=O)[O-])cc1Cl)c1cc(Cl)ccc1O [Niclosamide] + C=CCn1c(=O)c2cnc(Nc3ccc(N4CCN(C)CC4)cc3)nc2n1-c1cccc(C(C)(C)O)n1 [MK1775] | inactive: -0.539
CO[C@H]1C[C@@H]2CC[C@@H](C)[C@@](O)(O2)C(=O)C(=O)N2CCCC[C@H]2C(=O)O[C@H]([C@H](C)C[C@@H]2CC[C@@H](OC(=O)C(C)(CO)CO)[C@H](OC)C2)CC(=O)[C@H](C)/C=C(\C)[C@@H](O)[C@@H](OC)C(=O)[C@H](C)C[C@H](C)/C=C/C=C/C=C/1C [Temsirolimus (Torisel)] + C=CCn1c(=O)c2cnc(Nc3ccc(N4CCN(C)CC4)cc3)nc2n1-c1cccc(C(C)(C)O)n1 [MK1775] | inactive: -0.359
Cc1ccc(C(=O)N(CCCN)[C@@H](c2oc3cc(Cl)ccc3c(=O)c2Cc2ccccc2)C(C)C)cc1 + C=CCn1c(=O)c2cnc(Nc3ccc(N4CCN(C)CC4)cc3)nc2n1-c1cccc(C(C)(C)O)n1 [MK1775] | inactive: -0.375
Nc1nc(N)c2nc(-c3ccccc3)c(N)nc2n1 [Triamterene] + C=CCn1c(=O)c2cnc(Nc3ccc(N4CCN(C)CC4)cc3)nc2n1-c1cccc(C(C)(C)O)n1 [MK1775] | inactive: -1.73
C=C1C(=O)O[C@H]2[C@H]1CC/C(C)=C/CC[C@@]1(C)O[C@@H]21 [Parthenolide] + C=CCn1c(=O)c2cnc(Nc3ccc(N4CCN(C)CC4)cc3)nc2n1-c1cccc(C(C)(C)O)n1 [MK1775] | inactive: -0.378
Cn1nnc2c(C(N)=O)ncn2c1=O [Temozolomide] + C=CCn1c(=O)c2cnc(Nc3ccc(N4CCN(C)CC4)cc3)nc2n1-c1cccc(C(C)(C)O)n1 [MK1775] | inactive: 0.431
CN1[C@@H]2CC[C@H]1C[C@@H](OC(=O)C(O)c1ccccc1)C2 (mixture of isomers) [DL-Homatropine hydrobromide] + C=CCn1c(=O)c2cnc(Nc3ccc(N4CCN(C)CC4)cc3)nc2n1-c1cccc(C(C)(C)O)n1 [MK1775] | inactive: 0.0753
C[C@]12CC[C@H](O)CC1=CC[C@@H]1[C@@H]2CC[C@]2(C)C(c3cccnc3)=CC[C@@H]12 [Abiraterone (CB-7598)] + C=CCn1c(=O)c2cnc(Nc3ccc(N4CCN(C)CC4)cc3)nc2n1-c1cccc(C(C)(C)O)n1 [MK1775] | inactive: 0.57
CC(C)NCC(O)COc1cccc2[nH]ccc12 (stereo unspecified) [Pindolol] + C=CCn1c(=O)c2cnc(Nc3ccc(N4CCN(C)CC4)cc3)nc2n1-c1cccc(C(C)(C)O)n1 [MK1775] | inactive: -0.349
CC(CN(C)C)CN1c2ccccc2CCc2ccccc21 (stereo unspecified) [Trimipramine maleate] + C=CCn1c(=O)c2cnc(Nc3ccc(N4CCN(C)CC4)cc3)nc2n1-c1cccc(C(C)(C)O)n1 [MK1775] | inactive: 0.587
COC(=O)[C@H]1[C@H]2C[C@H]3c4[nH]c5ccccc5c4CCN3C[C@H]2CC[C@@H]1O [Rauwolscine hydrochloride] + C=CCn1c(=O)c2cnc(Nc3ccc(N4CCN(C)CC4)cc3)nc2n1-c1cccc(C(C)(C)O)n1 [MK1775] | inactive: -0.811

No new results follow: an excerpt of the list.
Structure (SMILES) | Z' of S-phase gammaH2AX difference (Z-score)
C#C[C@]1(O)CC[C@H]2[C@@H]3CCC4=Cc5oncc5C[C@]4(C)[C@H]3CC[C@@]21C [Danazol] + C=CCn1c(=O)c2cnc(Nc3ccc(N4CCN(C)CC4)cc3)nc2n1-c1cccc(C(C)(C)O)n1 [MK1775] | inactive: 0.712
Cc1cccc(-c2nn3c(c2-c2ccnc4ccc(C(N)=O)cc24)CCC3)n1 + C=CCn1c(=O)c2cnc(Nc3ccc(N4CCN(C)CC4)cc3)nc2n1-c1cccc(C(C)(C)O)n1 [MK1775] | inactive: 0.23
O=C(Nc1cccnc1)N1CCC(Cc2cccc(Oc3ccc(C(F)(F)F)cn3)c2)CC1 + C=CCn1c(=O)c2cnc(Nc3ccc(N4CCN(C)CC4)cc3)nc2n1-c1cccc(C(C)(C)O)n1 [MK1775] | inactive: -0.123

From the supplement of paper PMC5355238
